Assay [1] addresses T1, PfSKP1-HA (P. falciparum) (UniProt Q8ID38).
T1 sequence: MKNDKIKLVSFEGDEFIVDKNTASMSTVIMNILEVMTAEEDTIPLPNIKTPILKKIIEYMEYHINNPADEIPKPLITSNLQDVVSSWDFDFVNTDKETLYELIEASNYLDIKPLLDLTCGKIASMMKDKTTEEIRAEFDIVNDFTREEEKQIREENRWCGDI
Kind of assay: affinity purification with mass spectrometry; anti-HA agarose immunoprecipitation of PfSKP1-HA from schizont lysate (0.5X RIPA buffer, 1 h at room temperature), LC-MS/MS (DIA); parental DiCre strain as control.

Assay [2] deals with T2, PfRBX1-HA (P. falciparum) (UniProt O77367).
T2 sequence: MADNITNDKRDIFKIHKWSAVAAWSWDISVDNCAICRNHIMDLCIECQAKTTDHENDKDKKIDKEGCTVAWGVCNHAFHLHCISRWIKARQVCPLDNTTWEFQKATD
Kind of assay: affinity purification with mass spectrometry; anti-HA agarose immunoprecipitation of PfRBX1-HA from schizont lysate (0.5X RIPA buffer, 1 h at room temperature), LC-MS/MS (DIA); parental DiCre strain as control.

Assay [3] concerns the target T3, PfMCM4-Flag (P. falciparum) (UniProt Q8IEE5).
T3 sequence: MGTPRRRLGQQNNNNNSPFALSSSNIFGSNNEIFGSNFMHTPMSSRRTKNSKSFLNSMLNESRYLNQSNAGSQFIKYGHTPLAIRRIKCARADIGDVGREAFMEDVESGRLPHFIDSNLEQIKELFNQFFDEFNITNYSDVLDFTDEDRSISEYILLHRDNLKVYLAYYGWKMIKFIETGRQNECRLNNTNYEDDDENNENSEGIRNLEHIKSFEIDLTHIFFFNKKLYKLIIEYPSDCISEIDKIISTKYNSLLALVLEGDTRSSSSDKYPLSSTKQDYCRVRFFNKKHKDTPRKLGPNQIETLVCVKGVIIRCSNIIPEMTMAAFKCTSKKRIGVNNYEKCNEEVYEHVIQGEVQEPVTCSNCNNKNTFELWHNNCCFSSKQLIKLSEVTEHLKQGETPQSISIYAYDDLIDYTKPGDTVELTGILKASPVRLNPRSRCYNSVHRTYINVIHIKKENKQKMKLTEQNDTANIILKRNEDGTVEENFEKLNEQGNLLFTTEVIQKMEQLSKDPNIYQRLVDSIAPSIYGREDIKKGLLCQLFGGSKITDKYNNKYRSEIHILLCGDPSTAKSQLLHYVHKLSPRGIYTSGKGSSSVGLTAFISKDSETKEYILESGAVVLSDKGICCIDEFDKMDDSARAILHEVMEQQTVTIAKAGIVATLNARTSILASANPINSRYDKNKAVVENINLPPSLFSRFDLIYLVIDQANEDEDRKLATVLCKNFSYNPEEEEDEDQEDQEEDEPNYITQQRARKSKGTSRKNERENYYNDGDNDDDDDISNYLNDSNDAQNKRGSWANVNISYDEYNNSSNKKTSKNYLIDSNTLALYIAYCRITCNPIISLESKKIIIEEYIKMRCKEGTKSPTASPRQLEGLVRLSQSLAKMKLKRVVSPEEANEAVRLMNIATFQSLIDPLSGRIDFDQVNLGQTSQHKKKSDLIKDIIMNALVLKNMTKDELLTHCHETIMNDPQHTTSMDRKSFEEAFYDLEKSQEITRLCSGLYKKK
Kind of assay: affinity purification with mass spectrometry; anti-Flag agarose immunoprecipitation of PfMCM4-Flag from schizont lysate (0.5X RIPA buffer), LC-MS/MS; DiCre strain as control; also from DiCre-PfSKP1-HA and DiCre-PfRBX1-HA backgrounds pre-treated with DMSO or rapamycin.

Assay [4] deals with T4, PfFBOX01-HA (P. falciparum) (UniProt C6KT37).
T4 sequence: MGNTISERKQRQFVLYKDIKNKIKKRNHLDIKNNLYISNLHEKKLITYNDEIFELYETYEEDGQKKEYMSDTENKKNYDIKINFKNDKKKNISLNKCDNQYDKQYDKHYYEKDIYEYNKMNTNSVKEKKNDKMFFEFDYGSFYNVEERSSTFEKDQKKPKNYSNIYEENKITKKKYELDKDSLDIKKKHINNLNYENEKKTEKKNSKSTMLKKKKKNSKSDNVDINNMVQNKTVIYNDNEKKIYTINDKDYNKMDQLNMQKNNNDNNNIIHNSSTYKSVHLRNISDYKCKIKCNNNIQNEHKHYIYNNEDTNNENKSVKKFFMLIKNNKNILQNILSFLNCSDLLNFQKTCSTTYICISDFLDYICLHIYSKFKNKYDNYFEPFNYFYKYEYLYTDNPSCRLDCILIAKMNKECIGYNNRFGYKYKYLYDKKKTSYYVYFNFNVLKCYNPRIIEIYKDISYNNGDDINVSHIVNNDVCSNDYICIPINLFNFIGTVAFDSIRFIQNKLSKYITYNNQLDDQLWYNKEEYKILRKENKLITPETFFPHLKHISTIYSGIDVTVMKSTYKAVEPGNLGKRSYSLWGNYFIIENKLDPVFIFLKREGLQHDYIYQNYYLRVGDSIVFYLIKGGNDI
Kind of assay: affinity purification with mass spectrometry; anti-HA beads, immunoprecipitation of PfFBOX01-HA from schizont lysate (0.5X RIPA buffer), LC-MS/MS; DiCre strain as control.

Assay [5] addresses T5, PfRBX1-HA (P. falciparum), O77367.
T5 chain: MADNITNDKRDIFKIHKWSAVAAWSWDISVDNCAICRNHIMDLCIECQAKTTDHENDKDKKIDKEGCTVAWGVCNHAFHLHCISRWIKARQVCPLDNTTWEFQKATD
Kind of assay: affinity purification with mass spectrometry; anti-HA agarose immunoprecipitation of PfRBX1-HA from schizont lysate (0.5X RIPA buffer, 1 h at room temperature), LC-MS/MS (DIA); parental DiCre strain as control. To be noted: remark: other sources report otherwise.

No constants are given. Whether binding was seen depends on the method and setting. Binding seen in cells or lysates may run through a third protein. These calls come from enrichment with a bait or labelling near it, and not all partners need be listed. For some of these results: A no says only that the protein was not detected with the bait. Tags and fused reporters may be left off the sequences shown.

B1: PfCullin1 (protein, UniProt Q8IAU5 1-829)
chain: MDIVNINFESGWKIIREEAIEKIEKYLENEHIEKNKNLFSATEYTRLYTVVYNMCAKKNPFCYSKEVYRKYGESLSMYTIDKIKPLLKNSDELNKTKILIDAWFKYSFYTKWMNKFLRYLDRYYVEYNSSLCLSAYTKNIFKITLFNELREDIKNIIYEIYNNLRLQEEIDQKELFCNIVELYKELDNESNEKMYEHDIEKKIVENVNNFYKKKAEEWINDYPFDDYIISIENAIEKEYEKNKSLNLNDDTCEKVTNIIVKILIYEKLNTLIDNKNNIFHLLKNNNLSSLRRTYILFSYFPEALTGLKKIIGEYIKMEGNELKDKYVQLSRKMHMSKNVNNMQNVDDNTMEDNDNYIDISNDDNNNNDNSNNNNIMNTEQNDDIILCDYIEQLIKLHNHYDNIFKLSFFNISNKNIDPNFNECLKDYFESFVEHEDEYFSTVKLLVIYTDNILKRDLNNENSVDEKQKIHMNKEEKNDEQTKFLMKKMSEIVEIFNYTSNKETFFEYYRVYLANRLINNIYISLHIEKKFIEQLYYLCGSQYTSKLGGMIQDLINNTNMNNKFYDHMKNVFNNNEIVNNNNNNSIYNDHFSNYHNVKDFFSVKILNKGYWPTLEKIHIQLNEPFNKYIQVFEEYYKSENKNRKLEWIYELSEVILHYEFNNILYNLYCNVVNAQILLLFNKYKYINYDIVKNELQIDLKSFTDHMYTSFYHFKLITSNDQIPDWTNSNFYINNNFSYPNKNVYIKKTTALLSKEHEKTKEDRTMAIEAAIVRVMKMHKKLFYDQIFDYVKKSLSSFSPTNQVIEKKIDLLVEREYIQKEENSQIYVYIP
Consider B1, for which the binding result in assay [1], in assay [2] and in assay [3] was “binds” each time.

B2: PfSKP1 (protein, UniProt Q8ID38 1-162)
chain: MKNDKIKLVSFEGDEFIVDKNTASMSTVIMNILEVMTAEEDTIPLPNIKTPILKKIIEYMEYHINNPADEIPKPLITSNLQDVVSSWDFDFVNTDKETLYELIEASNYLDIKPLLDLTCGKIASMMKDKTTEEIRAEFDIVNDFTREEEKQIREENRWCGDI
Regarding B2, the binding entry in assay [4] was “binds”.

B3: PfSKP1, Q8ID38 1-162 (protein)
chain: MKNDKIKLVSFEGDEFIVDKNTASMSTVIMNILEVMTAEEDTIPLPNIKTPILKKIIEYMEYHINNPADEIPKPLITSNLQDVVSSWDFDFVNTDKETLYELIEASNYLDIKPLLDLTCGKIASMMKDKTTEEIRAEFDIVNDFTREEEKQIREENRWCGDI
For the molecule B3, the binding entry in assay [5] was “binds”.

B4: Rab11b (protein, UniProt C0H5G2 1-229)
chain: MSNEEYDHLYKIILVGDATVGKTHLLSRYIRGSLPSVAKATIGVEFATRTIPLAVGGTVKAQIWDTAGQERYRSITSAHYRRSAGAILVYDITKKKTFLSISKWLEEIRQNADKDIVIMLVGNKVDLTEEDETKRKVTYEQGANFARENNLFFAEASAVSKLNVKHIFENLLQEIYNNRLKNNNRSFSNRSVATCESAIQLTKARSVIKLNEVYDNQSEDNNMNKVKCC
For the molecule B4, the binding entry in assay [4] and in assay [1] was “binds” in each case.

B5: PfFBOX01 (protein, UniProt C6KT37 1-633)
chain: MGNTISERKQRQFVLYKDIKNKIKKRNHLDIKNNLYISNLHEKKLITYNDEIFELYETYEEDGQKKEYMSDTENKKNYDIKINFKNDKKKNISLNKCDNQYDKQYDKHYYEKDIYEYNKMNTNSVKEKKNDKMFFEFDYGSFYNVEERSSTFEKDQKKPKNYSNIYEENKITKKKYELDKDSLDIKKKHINNLNYENEKKTEKKNSKSTMLKKKKKNSKSDNVDINNMVQNKTVIYNDNEKKIYTINDKDYNKMDQLNMQKNNNDNNNIIHNSSTYKSVHLRNISDYKCKIKCNNNIQNEHKHYIYNNEDTNNENKSVKKFFMLIKNNKNILQNILSFLNCSDLLNFQKTCSTTYICISDFLDYICLHIYSKFKNKYDNYFEPFNYFYKYEYLYTDNPSCRLDCILIAKMNKECIGYNNRFGYKYKYLYDKKKTSYYVYFNFNVLKCYNPRIIEIYKDISYNNGDDINVSHIVNNDVCSNDYICIPINLFNFIGTVAFDSIRFIQNKLSKYITYNNQLDDQLWYNKEEYKILRKENKLITPETFFPHLKHISTIYSGIDVTVMKSTYKAVEPGNLGKRSYSLWGNYFIIENKLDPVFIFLKREGLQHDYIYQNYYLRVGDSIVFYLIKGGNDI
As for B5, the binding result was “binds” in assay [1] and “no binding” in assay [2].

B6: PF3D7_0506700, a GTP-ase activating protein (protein, UniProt Q8I435 1-819)
chain: MFNHDIIKEKDNYKQKIRTLYRNEKEAIKPCNHYDMKEEEKKKSGKIKRSIKLFGTPAVHGLSSHINNNSGTQLYYNFHNVLKRDKEKIQDDNLNYTLERDAGEDNTMQSIHESDKTETQECGKHYLYNKFDIYKSYLSYKKDLIRNEYDQDYKGITTSLLKGKDTHDDNKDNKDNDDNDDNDDNNDHNDHYDITRDDPCDDMCDDMCEDMCDDMCDDMCDDPCDDMCDDPCDDMCDDPCDDMCDDPCDDPYDHPYEEEKYSTYCDKGYLRNFLKNAIIRPNLQTFVGRKIISFLNEKERDIFSLTCKILFFEVYSVSNLKTLYKYQFISNEKRSFIWKAILLEDNTYISEEDYKELRNRKCLYDKAIEKDINRTFPKHPFFINKNMNMQDKLLDILKVCSLYFERIGYCQGMNYIAGILLLVFRKNIDTIRCFISMLKNYNIKGMFSYNFPQLKKIIYQLNLLIKAYIPKLFYYFKRKKIKIDFFCVNWFLTLFSQDLSFENTLKLWDLFFLFGMKILIKLTLILLYYHEDNIIHLSYDEALTYLKAITKTPFIDYLFQDDHFFTHLKKFKITNSMLTQIIMLKKSRQKINLLVKENNGKLRCSIQIKQNNKHTFTSKIKEGFRNLFKLNENYVDYINYFYQKGDGEENNGNQNNGEEYNGKEYNGNQNNGNQNNGKQNNGNQNNGKQNNGNQNNVKQNNGEDTNKNNNNDDINNNICHNNYSSTNFYKNFFQHFNCGNIFNNPNYSNEIVLTNTTCLSVHFNSNVLCNSQNIKNKNTIHSLENIKEEHDHTKNPSNFFLETNTYYDLNLTKSVDGNN
In the case of B6, the binding entry in assay [1] is “binds”.

Values taken from PMC12218279.
